The results are deposited in PubChem (AID1159506; NCATS, 2015).

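Genome-wide siRNA knockdown in TC32 Ewing sarcoma cells, comparing luciferase light from an NR0B1-promoter reporter with a CMV-promoter reporter 48 hours after transfection.
Each siRNA was applied at 20 nM.
A z-score of the log NR0B1-over-CMV signal, less the median of siRNAs with the same seed; more negative means a stronger specific loss of the NR0B1 reporter.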

The strongest results of the screen are mostly left out here.
Sequences are the guide (antisense) strand, without overhang.

UAGUAUUAGGGAUAGGUCC against THSD7A read seed-corrected z-score 0.374.
UUGAGGACGAUGAGCUUGG against LRRC8A read seed-corrected z-score -0.2998.
AAAGCUGUUAACAAGGAGG against BST1 read seed-corrected z-score 0.9059.
UCACUUUCAACCUGUCACC against PYGB read seed-corrected z-score -0.087.
UAGUAGAUCAGGAUGCAGG against TMEM129 read seed-corrected z-score -0.2827.
UCUGGAAGGUUCUAUCUCC against HLA-B read seed-corrected z-score 1.08.
UUAGCAAUAAAGCAGACUC against MROH9 read seed-corrected z-score 0.3865.
UCUGAUGUAGGACUCGUGG against UBQLN2 read seed-corrected z-score -0.4661.
AACCUCGACACUUGUAUCC against PXDNL read seed-corrected z-score 0.1198.
AAACUCUCCAGAGACGUGG against ALAD read seed-corrected z-score -0.4288.
UAGUUCGAGAGAGAUGUCG against DMXL2 read seed-corrected z-score 0.1737.
UAUGAUUCAGCAUUCAAUG against TCTN1 read seed-corrected z-score 0.6326.
UUUACGAAGAAGACAAGUC against DNM1L read seed-corrected z-score -0.8299.
UAUCAUGAUACUCUGCUGU against FAM53C read seed-corrected z-score 0.8785.
AUCCGGUUUCCAAAUUUCC against POMT2 read seed-corrected z-score -0.3494.
UCAUCUCUAACAAUCCACG against PPFIBP1 read seed-corrected z-score -0.4029.
UCCUUUACAACCAAGAAGU against TMCO5B read seed-corrected z-score 0.4123.
UACCUGGACACGCUCUUGG against CXCL14 read seed-corrected z-score -0.03813.
AAUUGGAAGACUGCAUUGC against DDX18 read seed-corrected z-score 1.272.
AACCUUAUCGUGGUUAGUG against OR2T12 read seed-corrected z-score 0.441.
UAAGUCGUGCAUUAUAGCC against DNAH11 read seed-corrected z-score 0.7408.
UGUUUGAUGCGUCCAUUGC against PTPRS read seed-corrected z-score -0.6643.
UUCAGCUAAAAGAUUCUCC against TUSC3 read seed-corrected z-score -0.7231.
UUCUCUCCUUGCUCCGACC against CD300LB read seed-corrected z-score -0.2542.
UUUGCGAAAAGACUGGAGC against DSG4 read seed-corrected z-score 0.4174.
AAAGGCUGCACGGUACAGC against LOC642574 read seed-corrected z-score -0.7025.
UCACUUUAAAGCGAUCUAG against RCHY1 read seed-corrected z-score -0.3877.
UCUGGUAGCAGCAAGGCCU against IRGQ read seed-corrected z-score -1.322.
UCAUUGACAAGUGAGCAGU against XRCC6BP1 read seed-corrected z-score -0.3153.
UCUUCUCGGAAGAUGAGGC against AMH read seed-corrected z-score 0.02425.
UACGGGUUCGGACGUAGUC against MLXIPL read seed-corrected z-score 0.2979.
UUACUAGCAGAGACUACCU against MRPS11 read seed-corrected z-score -1.096.
UUUGUUGUGGGCGGUGUUG against TRIM25 read seed-corrected z-score -0.5837.
UUCUUGUUUGUAGAAGGUC against ADAT2 read seed-corrected z-score 0.9129.
UAUGGUAACAUAUGCACAG against IL1F10 read seed-corrected z-score -0.1147.
AAUGGUUUCAUCAAGUACU against ACVR1B read seed-corrected z-score -0.6655.
UAACUUCAAAGGUGUAUCC against ADH7 read seed-corrected z-score -0.06812.